## Results from one PubChem assay

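A panel of P. falciparum strains inside erythrocytes is exposed to compounds for three days, then a DNA-binding dye reports the amount of parasite DNA. Each compound was titrated across a series from about 0.000037 to 29 µM. The number is the fitted AC50, the concentration giving a half-maximal change in signal; a lower value means higher potency, whether the curve shows a decrease or an increase. Calls follow the curve class and fit quality: every row here is inconclusive, covering signal-raising curves and weak, poorly fitted, partial or highest-dose-only inhibition curves.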

Values are in µM. Every entry below has the call inconclusive. These entries are mostly ones the record files as inconclusive; other results of the assay are not listed here. Potencies fitted to partial, single-point or poorly fitting curves are rough. Some entries filed as inconclusive have a full curve.

compound,condition,Potency (µM),curve as filed
CCC[C@@H]1C[C@@H](C(=O)N[C@@H]([C@H]2O[C@H](SC)[C@H](O)[C@@H](O)[C@H]2O)[C@@H](C)O)N(C)C1,PC26,1.694,"inhibitor, partial curve, poor fit"
CCC[C@@H]1C[C@@H](C(=O)N[C@@H]([C@H]2O[C@H](SC)[C@H](O)[C@@H](O)[C@H]2O)[C@@H](C)O)N(C)C1,CP335,0.5358,"inhibitor, full curve"
CCC[C@@H]1C[C@@H](C(=O)N[C@@H]([C@H]2O[C@H](SC)[C@H](O)[C@@H](O)[C@H]2O)[C@@H](C)O)N(C)C1,3D7,1.585,"inhibitor, full curve"
CCC[C@@H]1C[C@@H](C(=O)N[C@@H]([C@H]2O[C@H](SC)[C@H](O)[C@@H](O)[C@H]2O)[C@@H](C)O)N(C)C1,7G8,0.3548,"inhibitor, partial curve, poor fit"
CCC[C@@H]1C[C@@H](C(=O)N[C@@H]([C@H]2O[C@H](SC)[C@H](O)[C@@H](O)[C@H]2O)[C@@H](C)O)N(C)C1,CP191,7.08,"inhibitor, partial curve, poor fit"
CCC[C@@H]1C[C@@H](C(=O)N[C@@H]([C@H]2O[C@H](SC)[C@H](O)[C@@H](O)[C@H]2O)[C@@H](C)O)N(C)C1,CP305,0.6012,"inhibitor, full curve"
CCC[C@@H]1C[C@@H](C(=O)N[C@@H]([C@H]2O[C@H](SC)[C@H](O)[C@@H](O)[C@H]2O)[C@@H](C)O)N(C)C1,CP211,0.6012,"inhibitor, full curve"
CCC[C@@H]1C[C@@H](C(=O)N[C@@H]([C@H]2O[C@H](SC)[C@H](O)[C@@H](O)[C@H]2O)[C@@H](C)O)N(C)C1,CP260,0.631,"inhibitor, full curve"
CCC[C@@H]1C[C@@H](C(=O)N[C@@H]([C@H]2O[C@H](SC)[C@H](O)[C@@H](O)[C@H]2O)[C@@H](C)O)N(C)C1,CP201,0.6012,"inhibitor, full curve"
CCC[C@@H]1C[C@@H](C(=O)N[C@@H]([C@H]2O[C@H](SC)[C@H](O)[C@@H](O)[C@H]2O)[C@@H](C)O)N(C)C1,GB4,3.381,"inhibitor, full curve"
CCC[C@@H]1C[C@@H](C(=O)N[C@@H]([C@H]2O[C@H](SC)[C@H](O)[C@@H](O)[C@H]2O)[C@@H](C)O)N(C)C1,AS120,0.3548,"inhibitor, full curve"
CCC[C@@H]1C[C@@H](C(=O)N[C@@H]([C@H]2O[C@H](SC)[C@H](O)[C@@H](O)[C@H]2O)[C@@H](C)O)N(C)C1,CP297,1.2,"inhibitor, full curve, poor fit"
CCC[C@@H]1C[C@@H](C(=O)N[C@@H]([C@H]2O[C@H](SC)[C@H](O)[C@@H](O)[C@H]2O)[C@@H](C)O)N(C)C1,HB3,1.778,"inhibitor, partial curve"
CCC[C@@H]1C[C@@H](C(=O)N[C@@H]([C@H]2O[C@H](SC)[C@H](O)[C@@H](O)[C@H]2O)[C@@H](C)O)N(C)C1,DIV30,2.393,"inhibitor, partial curve"
CCC[C@@H]1C[C@@H](C(=O)N[C@@H]([C@H]2O[C@H](SC)[C@H](O)[C@@H](O)[C@H]2O)[C@@H](C)O)N(C)C1,CP237,0.3162,"inhibitor, full curve"
CCC[C@@H]1C[C@@H](C(=O)N[C@@H]([C@H]2O[C@H](SC)[C@H](O)[C@@H](O)[C@H]2O)[C@@H](C)O)N(C)C1,CP269,0.3793,"inhibitor, full curve"
Fc1ccc(C(c2ccc(F)cc2)N2CCN(C/C=C/c3ccccc3)CC2)cc1,PC15,17.78,"inhibitor, single point"
Fc1ccc(C(c2ccc(F)cc2)N2CCN(C/C=C/c3ccccc3)CC2)cc1,Dd2,10,"inhibitor, single point"
Fc1ccc(C(c2ccc(F)cc2)N2CCN(C/C=C/c3ccccc3)CC2)cc1,C2A,17.78,"inhibitor, single point"
Fc1ccc(C(c2ccc(F)cc2)N2CCN(C/C=C/c3ccccc3)CC2)cc1,CP256,17.78,"inhibitor, single point"
Fc1ccc(C(c2ccc(F)cc2)N2CCN(C/C=C/c3ccccc3)CC2)cc1,CP252,17.78,"inhibitor, single point"
Fc1ccc(C(c2ccc(F)cc2)N2CCN(C/C=C/c3ccccc3)CC2)cc1,ATS95,10,"inhibitor, single point"
Fc1ccc(C(c2ccc(F)cc2)N2CCN(C/C=C/c3ccccc3)CC2)cc1,CP185,11.22,"inhibitor, single point"
CNC1CCc2cc(OC)c(OC)c(OC)c2-c2ccc(OC)c(=O)cc21 (stereo not given),DIV17,16.94,"inhibitor, single point"
CNC1CCc2cc(OC)c(OC)c(OC)c2-c2ccc(OC)c(=O)cc21 (stereo not given),ICS,10,"inhibitor, single point"
CNC1CCc2cc(OC)c(OC)c(OC)c2-c2ccc(OC)c(=O)cc21 (stereo not given),7G8,12.59,"inhibitor, partial curve"
CNC1CCc2cc(OC)c(OC)c(OC)c2-c2ccc(OC)c(=O)cc21 (stereo not given),DIV30,10.69,"inhibitor, partial curve, poor fit"
CNC1CCc2cc(OC)c(OC)c(OC)c2-c2ccc(OC)c(=O)cc21 (stereo not given),3D7,1,"inhibitor, partial curve, poor fit"
CNC1CCc2cc(OC)c(OC)c(OC)c2-c2ccc(OC)c(=O)cc21 (stereo not given),CP237,10,"inhibitor, single point"
CNC1CCc2cc(OC)c(OC)c(OC)c2-c2ccc(OC)c(=O)cc21 (stereo not given),P93_24,14.13,"inhibitor, single point"
CN(C)c1ccc(C(=C2C=CC(=[N+](C)C)C=C2)c2ccccc2)cc1,TAB113,8.912,"inhibitor, partial curve"
CN(C)c1ccc(C(=C2C=CC(=[N+](C)C)C=C2)c2ccccc2)cc1,CP297,4.256,"inhibitor, partial curve, poor fit"
CN(C)c1ccc(C(=C2C=CC(=[N+](C)C)C=C2)c2ccccc2)cc1,P94_40,15.85,"inhibitor, single point"
CN(C)c1ccc(C(=C2C=CC(=[N+](C)C)C=C2)c2ccccc2)cc1,DIV14,3.381,"inhibitor, full curve"
CN(C)c1ccc(C(=C2C=CC(=[N+](C)C)C=C2)c2ccccc2)cc1,CP329,13.46,"inhibitor, single point"
CN(C)c1ccc(C(=C2C=CC(=[N+](C)C)C=C2)c2ccccc2)cc1,CP201,9.528,"inhibitor, partial curve"
CN(C)c1ccc(C(=C2C=CC(=[N+](C)C)C=C2)c2ccccc2)cc1,PAD,10,"inhibitor, single point"
CN(C)c1ccc(C(=C2C=CC(=[N+](C)C)C=C2)c2ccccc2)cc1,CP211,4.256,"inhibitor, partial curve"

The last 2 entries again:

* CN(C)c1ccc(C(=C2C=CC(=[N+](C)C)C=C2)c2ccccc2)cc1 [PAD] : Potency 10 µM (inhibitor, single point)
* CN(C)c1ccc(C(=C2C=CC(=[N+](C)C)C=C2)c2ccccc2)cc1 [CP211] : Potency 4.256 µM (inhibitor, partial curve)

Data taken from PubChem BioAssay AID504749, deposited by NCATS (2011).